Laboratory results from publication PMC6733923.

By UniProt entry, the sequences of proteins in these tests, tags left out.
UniProt Q05397: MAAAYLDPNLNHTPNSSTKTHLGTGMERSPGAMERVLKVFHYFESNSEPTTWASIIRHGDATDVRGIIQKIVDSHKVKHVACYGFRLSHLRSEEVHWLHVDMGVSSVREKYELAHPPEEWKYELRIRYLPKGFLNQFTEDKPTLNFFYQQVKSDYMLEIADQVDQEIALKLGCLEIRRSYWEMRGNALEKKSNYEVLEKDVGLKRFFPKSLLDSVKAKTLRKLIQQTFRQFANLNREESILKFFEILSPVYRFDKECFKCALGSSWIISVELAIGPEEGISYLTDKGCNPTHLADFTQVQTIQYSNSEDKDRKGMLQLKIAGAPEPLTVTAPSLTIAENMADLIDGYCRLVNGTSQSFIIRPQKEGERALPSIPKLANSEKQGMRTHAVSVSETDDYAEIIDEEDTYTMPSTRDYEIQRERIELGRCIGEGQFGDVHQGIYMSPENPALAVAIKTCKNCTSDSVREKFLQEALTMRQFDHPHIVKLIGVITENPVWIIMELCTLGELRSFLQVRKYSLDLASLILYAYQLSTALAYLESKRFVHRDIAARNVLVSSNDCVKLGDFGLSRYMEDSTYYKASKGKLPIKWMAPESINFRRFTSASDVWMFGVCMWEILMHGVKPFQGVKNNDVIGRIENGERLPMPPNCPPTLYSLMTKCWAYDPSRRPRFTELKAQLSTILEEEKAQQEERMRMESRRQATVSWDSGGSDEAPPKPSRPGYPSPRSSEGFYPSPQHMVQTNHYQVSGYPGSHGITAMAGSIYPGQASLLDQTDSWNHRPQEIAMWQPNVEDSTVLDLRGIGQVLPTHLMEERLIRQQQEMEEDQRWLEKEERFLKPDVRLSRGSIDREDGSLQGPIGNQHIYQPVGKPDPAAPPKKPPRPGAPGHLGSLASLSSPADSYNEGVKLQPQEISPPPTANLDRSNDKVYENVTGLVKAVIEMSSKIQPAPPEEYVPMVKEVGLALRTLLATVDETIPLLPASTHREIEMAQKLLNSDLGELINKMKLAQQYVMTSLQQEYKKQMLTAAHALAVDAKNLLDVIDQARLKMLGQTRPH

B1: rRNA 2’-O-methyltransferase fibrillarin (protein, UniProt P22087 1-321)
chain: MKPGFSPRGGGFGGRGGFGDRGGRGGRGGFGGGRGRGGGFRGRGRGGGGGGGGGGGGGRGGGGFHSGGNRGRGRGGKRGNQSGKNVMVEPHRHEGVFICRGKEDALVTKNLVPGESVYGEKRVSISEGDDKIEYRAWNPFRSKLAAAILGGVDQIHIKPGAKVLYLGAASGTTVSHVSDIVGPDGLVYAVEFSHRSGRDLINLAKKRTNIIPVIEDARHPHKYRMLIAMVDVIFADVAQPDQTRIVALNAHTFLRNGGHFVISIKANCIDSTASAEAVFASEVKKMQQENMKPQEQLTLEPYERDHAVVVGVYRPPPKVKN
B2: Aspartyl/Asparaginyl beta-hydroxylase (protein, UniProt Q12797 1-758)
chain: MAQRKNAKSSGNSSSSGSGSGSTSAGSSSPGARRETKHGGHKNGRKGGLSGTSFFTWFMVIALLGVWTSVAVVWFDLVDYEEVLGKLGIYDADGDGDFDVDDAKVLLGLKERSTSEPAVPPEEAEPHTEPEEQVPVEAEPQNIEDEAKEQIQSLLHEMVHAEHVEGEDLQQEDGPTGEPQQEDDEFLMATDVDDRFETLEPEVSHEETEHSYHVEETVSQDCNQDMEEMMSEQENPDSSEPVVEDERLHHDTDDVTYQVYEEQAVYEPLENEGIEITEVTAPPEDNPVEDSQVIVEEVSIFPVEEQQEVPPETNRKTDDPEQKAKVKKKKPKLLNKFDKTIKAELDAAEKLRKRGKIEEAVNAFKELVRKYPQSPRARYGKAQCEDDLAEKRRSNEVLRGAIETYQEVASLPDVPADLLKLSLKRRSDRQQFLGHMRGSLLTLQRLVQLFPNDTSLKNDLGVGYLLIGDNDNAKKVYEEVLSVTPNDGFAKVHYGFILKAQNKIAESIPYLKEGIESGDPGTDDGRFYFHLGDAMQRVGNKEAYKWYELGHKRGHFASVWQRSLYNVNGLKAQPWWTPKETGYTELVKSLERNWKLIRDEGLAVMDKAKGLFLPEDENLREKGDWSQFTLWQQGRRNENACKGAPKTCTLLEKFPETTGCRRGQIKYSIMHPGTHVWPHTGPTNCRLRMHLGLVIPKEGCKIRCANETKTWEEGKVLIFDDSFEHEVWQDASSFRLIFIVDVWHPELTPQQRRSLPAI
B3: Transducin beta-like protein 2 (protein, UniProt Q9Y4P3 1-447)
chain: MELSQMSELMGLSVLLGLLALMATAAVARGWLRAGEERSGRPACQKANGFPPDKSSGSKKQKQYQRIRKEKPQQHNFTHRLLAAALKSHSGNISCMDFSSNGKYLATCADDRTIRIWSTKDFLQREHRSMRANVELDHATLVRFSPDCRAFIVWLANGDTLRVFKMTKREDGGYTFTATPEDFPKKHKAPVIDIGIANTGKFIMTASSDTTVLIWSLKGQVLSTINTNQMNNTHAAVSPCGRFVASCGFTPDVKVWEVCFGKKGEFQEVVRAFELKGHSAAVHSFAFSNDSRRMASVSKDGTWKLWDTDVEYKKKQDPYLLKTGRFEEAAGAAPCRLALSPNAQVLALASGSSIHLYNTRRGEKEECFERVHGECIANLSFDITGRFLASCGDRAVRLFHNTPGHRAMVEEMQGHLKRASNESTRQRLQQQLTQAQETLKSLGALKK
B4: arginine–tRNA ligase, cytoplasmic (protein, UniProt P54136-1 1-660)
chain: MDVLVSECSARLLQQEEEIKSLTAEIDRLKNCGCLGASPNLEQLQEENLKLKYRLNILRKSLQAERNKPTKNMINIISRLQEVFGHAIKAAYPDLENPPLLVTPSQQAKFGDYQCNSAMGISQMLKTKEQKVNPREIAENITKHLPDNECIEKVEIAGPGFINVHLRKDFVSEQLTSLLVNGVQLPALGENKKVIVDFSSPNIAKEMHVGHLRSTIIGESISRLFEFAGYDVLRLNHVGDWGTQFGMLIAHLQDKFPDYLTVSPPIGDLQVFYKESKKRFDTEEEFKKRAYQCVVLLQGKNPDITKAWKLICDVSRQELNKIYDALDVSLIERGESFYQDRMNDIVKEFEDRGFVQVDDGRKIVFVPGCSIPLTIVKSDGGYTYDTSDLAAIKQRLFEEKADMIIYVVDNGQSVHFQTIFAAAQMIGWYDPKVTRVFHAGFGVVLGEDKKKFKTRSGETVRLMDLLGEGLKRSMDKLKEKERDKVLTAEELNAAQTSVAYGCIKYADLSHNRLNDYIFSFDKMLDDRGNTAAYLLYAFTRIRSIARLANIDEEMLQKAARETKILLDHEKEWKLGRCILRFPEILQKILDDLFLHTLCDYIYELATAFTEFYDSCYCVEKDRQTGKILKVNMWRMLLCEAVAAVMAKGFDILGIKPVQRM
B5: splicing factor, proline- and glutamine-rich (protein, UniProt P23246-1 1-707)
chain: MSRDRFRSRGGGGGGFHRRGGGGGRGGLHDFRSPPPGMGLNQNRGPMGPGPGQSGPKPPIPPPPPHQQQQQPPPQQPPPQQPPPHQPPPHPQPHQQQQPPPPPQDSSKPVVAQGPGPAPGVGSAPPASSSAPPATPPTSGAPPGSGPGPTPTPPPAVTSAPPGAPPPTPPSSGVPTTPPQAGGPPPPPAAVPGPGPGPKQGPGPGGPKGGKMPGGPKPGGGPGLSTPGGHPKPPHRGGGEPRGGRQHHPPYHQQHHQGPPPGGPGGRSEEKISDSEGFKANLSLLRRPGEKTYTQRCRLFVGNLPADITEDEFKRLFAKYGEPGEVFINKGKGFGFIKLESRALAEIAKAELDDTPMRGRQLRVRFATHAAALSVRNLSPYVSNELLEEAFSQFGPIERAVVIVDDRGRSTGKGIVEFASKPAARKAFERCSEGVFLLTTTPRPVIVEPLEQLDDEDGLPEKLAQKNPMYQKERETPPRFAQHGTFEYEYSQRWKSLDEMEKQQREQVEKNMKDAKDKLESEMEDAYHEHQANLLRQDLMRRQEELRRMEELHNQEMQKRKEMQLRQEEERRRREEEMMIRQREMEEQMRRQREESYSRMGYMDPRERDMRMGGGGAMNMGDPYGSGGQKFPPLGGGGGIGYEANPGVPPATMSGSMMGSDMRTERFGQGGAGPVGGQGPRGMGPGTPAGYGRGREEYEGPNKKPRF
B6: Caprin-1 (protein, UniProt Q14444-1 1-709)
chain: MPSATSHSGSGSKSSGPPPPSGSSGSEAAAGAGAAAPASQHPATGTGAVQTEAMKQILGVIDKKLRNLEKKKGKLDDYQERMNKGERLNQDQLDAVSKYQEVTNNLEFAKELQRSFMALSQDIQKTIKKTARREQLMREEAEQKRLKTVLELQYVLDKLGDDEVRTDLKQGLNGVPILSEEELSLLDEFYKLVDPERDMSLRLNEQYEHASIHLWDLLEGKEKPVCGTTYKVLKEIVERVFQSNYFDSTHNHQNGLCEEEEAASAPAVEDQVPEAEPEPAEEYTEQSEVESTEYVNRQFMAETQFTSGEKEQVDEWTVETVEVVNSLQQQPQAASPSVPEPHSLTPVAQADPLVRRQRVQDLMAQMQGPYNFIQDSMLDFENQTLDPAIVSAQPMNPTQNMDMPQLVCPPVHSESRLAQPNQVPVQPEATQVPLVSSTSEGYTASQPLYQPSHATEQRPQKEPIDQIQATISLNTDQTTASSSLPAASQPQVFQAGTSKPLHSSGINVNAAPFQSMQTVFNMNAPVPPVNEPETLKQQNQYQASYNQSFSSQPHQVEQTELQQEQLQTVVGTYHGSPDQSHQVTGNHQQPPQQNTGFPRSNQPYYNSRGVSRGGSRGARGLMNGYRGPANGFRGGYDGYRPSFSNTPNSGYTQSQFSAPRDYSGYQRDGYQQNFKRGSGQSGPRGAPRGRGGPPRPNRGMPQMNTQQVN
B7: Lamin-B2 (protein, UniProt Q03252 1-620)
chain: MSPPSPGRRREQRRPRAAATMATPLPGRAGGPATPLSPTRLSRLQEKEELRELNDRLAHYIDRVRALELENDRLLLKISEKEEVTTREVSGIKALYESELADARRVLDETARERARLQIEIGKLRAELDEVNKSAKKREGELTVAQGRVKDLESLFHRSEVELAAALSDKRGLESDVAELRAQLAKAEDGHAVAKKQLEKETLMRVDLENRCQSLQEELDFRKSVFEEEVRETRRRHERRLVEVDSSRQQEYDFKMAQALEELRSQHDEQVRLYKLELEQTYQAKLDSAKLSSDQNDKAASAAREELKEARMRLESLSYQLSGLQKQASAAEDRIRELEEAMAGERDKFRKMLDAKEQEMTEMRDVMQQQLAEYQELLDVKLALDMEINAYRKLLEGEEERLKLSPSPSSRVTVSRATSSSSGSLSATGRLGRSKRKRLEVEEPLGSGPSVLGTGTGGSGGFHLAQQASASGSVSIEEIDLEGKFVQLKNNSDKDQSLGNWRIKRQVLEGEEIAYKFTPKYILRAGQMVTVWAAGAGVAHSPPSTLVWKGQSSWGTGESFRTVLVNADGEEVAMRTVKKSSVMRENENGEEEEEEAEFGEEDLFHQQGDPRTTSRGCYVM
B8: Guanine nucleotide-binding protein-like 3 (protein, UniProt Q9BVP2 1-549)
chain: MKRPKLKKASKRMTCHKRYKIQKKVREHHRKLRKEAKKRGHKKPRKDPGVPNSAPFKEALLREAELRKQRLEELKQQQKLDRQKELEKKRKLETNPDIKPSNVEPMEKEFGLCKTENKAKSGKQNSKKLYCQELKKVIEASDVVLEVLDARDPLGCRCPQVEEAIVQSGQKKLVLILNKSDLVPKENLESWLNYLKKELPTVVFRASTKPKDKGKITKRVKAKKNAAPFRSEVCFGKEGLWKLLGGFQETCSKAIRVGVIGFPNVGKSSIINSLKQEQMCNVGVSMGLTRSMQVVPLDKQITIIDSPSFIVSPLNSSSALALRSPASIEVVKPMEAASAILSQADARQVVLKYTVPGYRNSLEFFTVLAQRRGMHQKGGIPNVEGAAKLLWSEWTGASLAYYCHPPTSWTPPPYFNESIVVDMKSGFNLEELEKNNAQSIRAIKGPHLANSILFQSSGLTNGIIEEKDIHEELPKRKERKQEEREDDKDSDQETVDEEVDENSSGMFAAEETGEALSEETTAGEQSTRSFILDKIIEEDDAYDFSTDYV
B9: Transcription factor 25 (protein, UniProt Q9BQ70 1-676)
chain: MSRRALRRLRGEQRGQEPLGPGALHFDLRDDDDAEEEGPKRELGVRRPGGAGKEGVRVNNRFELINIDDLEDDPVVNGERSGCALTDAVAPGNKGRGQRGNTESKTDGDDTETVPSEQSHASGKLRKKKKKQKNKKSSTGEASENGLEDIDRILERIEDSTGLNRPGPAPLSSRKHVLYVEHRHLNPDTELKRYFGARAILGEQRPRQRQRVYPKCTWLTTPKSTWPRYSKPGLSMRLLESKKGLSFFAFEHSEEYQQAQHKFLVAVESMEPNNIVVLLQTSPYHVDSLLQLSDACRFQEDQEMARDLVERALYSMECAFHPLFSLTSGACRLDYRRPENRSFYLALYKQMSFLEKRGCPRTALEYCKLILSLEPDEDPLCMLLLIDHLALRARNYEYLIRLFQEWEAHRNLSQLPNFAFSVPLAYFLLSQQTDLPECEQSSARQKASLLIQQALTMFPGVLLPLLESCSVRPDASVSSHRFFGPNAEISQPPALSQLVNLYLGRSHFLWKEPATMSWLEENVHEVLQAVDAGDPAVEACENRRKVLYQRAPRNIHRHVILSEIKEAVAALPPDVTTQSVMGFDPLPPSDTIYSYVRPERLSPISHGNTIALFFRSLLPNYTMEGERPEEGVAGGLNRNQGLNRLMLAVRDMMANFHLNDLEAPHEDDAEGEGEWD
B10: Coiled-coil domain-containing protein 86 (protein, UniProt Q9H6F5 1-360)
chain: MDTPLRRSRRLGGLRPESPESLTSVSRTRRALVEFESNPEETREPGSPPSVQRAGLGSPERPPKTSPGSPRLQQGAGLESPQGQPEPGAASPQRQQDLHLESPQRQPEYSPESPRCQPKPSEEAPKCSQDQGVLASELAQNKEELTPGAPQHQLPPVPGSPEPYPGQQAPGPEPSQPLLELTPRAPGSPRGQHEPSKPPPAGETVTGGFGAKKRKGSSSQAPASKKLNKEELPVIPKGKPKSGRVWKDRSKKRFSQMLQDKPLRTSWQRKMKERQERKLAKDFARHLEEEKERRRQEKKQRRAENLKRRLENERKAEVVQVIRNPAKLKRAKKKQLRSIEKRDTLALLQKQPPQQPAAKI

Biological target: Focal adhesion kinase 1 (human (endogenous in HCT-116)) (UniProt Q05397)
Experiment: affinity purification with mass spectrometry; anti-FAK polyclonal antibody and Protein A/G agarose on 1.5 mg HCT-116 total cell lysate, cells untreated (regular IP) or stimulated with 10 ng/ml EGF for 30 min; rabbit IgG as control; 1D SDS-PAGE, in-gel trypsin digestion, nano-LC-MS/MS; the proteins of Table 2 were found only with EGF …

binding, binds:
B1
B2
B3
B4
B5
B6
B7
B8
B9
B10

These are yes or no findings as the source states them, for the method shown. Binding seen in cells or lysates may run through a third protein. A yes stands for co-enrichment or nearness to the bait. Other partners may have been found.
